According to the supplement of paper PMC8256030:
Where “and” joins values, the source holds several entries; their conditions need not be identical. Equal entries are not always repeated. Structures can show the parent of a compound that is named as a salt. The list shows a part of the results. This data set is noisy: repeats of one test often differ as much as different tests do.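 HEK293T cells were given each compound shortly before transfection with a reporter in which red mCherry is followed by the SARS-CoV-2 frameshift element and then GFP in the −1 frame, so GFP appears only after frameshifting.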

The compounds below were run on HEK293T (assay: percent viability (nuclei count) relative to control; higher = more viable cells). Conditions: 10 µM; 24 h.
Work on `Cc1c2oc3c(C)ccc(C(=O)N[C@@H]4C(=O)N[C@H](C(C)C)C(=O)N5CCC[C@H]5C(=O)N(C)CC(=O)N(C)[C@@H](C(C)C)C(=O)O[C@@H]4C)c3nc-2c(C(=O)N[C@@H]2C(=O)N[C@H](C(C)C)C(=O)N3CCC[C@H]3C(=O)N(C)CC(=O)N(C)[C@@H](C(C)C)C(=O)O[C@@H]2C)c(N)c1=O` yielded a percent viability of 40.2%.
For `CCOC(=O)NNc1ccc(N(CC)CC(C)O)nn1` (stereo unspecified) [cadralazine], the percent viability was 143%.
In the case of `CC(C)(Sc1cc(C(C)(C)C)c(O)c(C(C)(C)C)c1)Sc1cc(C(C)(C)C)c(O)c(C(C)(C)C)c1` [probucol], the percent viability is reported as 292%.
For `COc1ccc2c(c1)C(O)(CCCN(C)C)c1ccccc1S2` (stereo unspecified) [meprotixol], the percent viability was 207%.
Compound `CC(C)Nc1cccnc1N1CCN(C(=O)c2cc3cc(NS(C)(=O)=O)ccc3[nH]2)CC1` [Delavirdine mesylate] has a percent viability of 222%.
With `Cc1cnc(C(=O)O)c[n+]1[O-]` [acipimox] the percent viability was 275% and 213%.
